± gives the standard deviation. The list shows a part of the results, in another mix than the full data. Many of these values have a large error.
Each sequence was assayed on MILI (PIWIL2) piRISC loaded with piRNA #1 (26 nt) (assay: pre-steady-state target cleavage rate (min^-1); MIWI and MILI are mouse PIWI proteins and EfPiwi is from a freshwater sponge; tags in brackets are library labels; higher = faster piRNA-guided slicing of the target). Conditions: guide: piRNA #1 5'p-UGAGGUAGUAGGUUGUAUAGUAUCCA; auxiliary factor: 500 nM mouse GTSF1.
In short: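 At 33 °C in HEPES–potassium acetate buffer, a transcribed, DNA-blocked target RNA library […] was exposed for 0–8 or 0–960 min to 1 nM active affinity-purified piRISC carrying a single synthetic guide, with or without 500 nM GTSF1 partner protein. Uncleaved targets were sequenced and normalised to depth and to weakly complementary targets. With three trials pooled and k3 capped at 0.0001 min^-1, a burst-and-steady-state fit produced the pre-steady-state cleavage rate.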
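Also: 1 nM active piRISC with 0.1 nM target library at 33 °C single turnover.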

| Sequence | pre-steady-state target cleavage rate |
| --- | --- |
| GGAGACGAUACUAUACAACCAACAACCUCA | 0.00726 ± 0.0036 |
| GGAGACCAUACUAUACAACCUUCUACCUGA | 0.00324 ± 0.0032 |
| GGAGACCUAUGAUAUGAACCUACUACACUCA | < 0.0001 |
| GGAGAGGAUACUAUUCAACCUACUACCACA | 0.169 ± 0.017 |
| GGAGUGCUAACUAUACAACCUACUACCUCA | 0.128 ± 0.015 |
| GGAGACCUAUGAAUACAACCUACUUGGUCA | 0.000119 ± 0.019 |
| GGAGACGAUACUAUACAAGCUACAACCUCA | 0.211 ± 0.018 |
| GGAGACCUAUGAUAUGUAGCUACUUCCUCA | 0.000302 ± 0.018 |
| GGAGUGGAUAGUAUACAACCUACUACCUGA | 0.0603 ± 0.014 |
| GGAGACCUAACUAUUGUACCUACUACCUCA | 0.00477 ± 0.0036 |
| GGAGACCUAUGUAUACAACCAAGUACCUCA | 0.00246 ± 0.0031 |
| GGAGACCUUACUAUACAACUCUACUACCUCA | 0.000634 ± 0.0089 |
| GGAGACCUAUGAUAUGAAGCUACUAGCUCA | 0.000259 ± 0.02 |
| GGAGAGGUAUACUAUACAACCUACUACCUCA | 0.111 ± 0.0086 |
| GGAGACCUAUGAUAUGUACCUACAACCUCA | 0.000104 ± 0.019 |
| GGAGAGGAUACUAUACAUCCUACUACGUCA | 0.00995 ± 0.003 |
| GGAGACCAUACUAUACAUCCUACUACCACA | 0.279 ± 0.028 |
| GGAGAGGAUAGUAUACAACCAACUACCUCA | 0.00282 ± 0.0036 |
| GGAGAGGAUACUAUAGAACCUACUACCUGA | 0.0217 ± 0.005 |
| GGAGACCUAUGAUAUCUAGCUACUACCUCA | 0.000106 ± 0.022 |
| GGAGACCUUACUAUACAAGCUACUACCACA | 0.266 ± 0.023 |
| GGAGUGGAUACUAUACAACCUUACUACCUCA | 0.00105 ± 0.0038 |
| GGAGACCUAUGAAAUGAACCUACUACCUCA | 0.000314 ± 0.0091 |
| GGAGACGAUACUAUACAACCUACUGACCUCA | 0.118 ± 0.015 |

Copied from the listing for reference:

| Sequence | pre-steady-state target cleavage rate |
| --- | --- |
| GGAGAGGAUACUAUACAUCCUACUACGUCA | 0.00995 ± 0.003 |
| GGAGACCAUACUAUACAUCCUACUACCACA | 0.279 ± 0.028 |
| GGAGAGGAUAGUAUACAACCAACUACCUCA | 0.00282 ± 0.0036 |
| GGAGAGGAUACUAUAGAACCUACUACCUGA | 0.0217 ± 0.005 |
| GGAGACCUAUGAUAUCUAGCUACUACCUCA | 0.000106 ± 0.022 |
| GGAGACCUUACUAUACAAGCUACUACCACA | 0.266 ± 0.023 |

— the supplement of paper PMC10338343
